Among all 400,000 compounds or so, about 13,000 (3.2%) were called active. Inconclusive means that the source gave no clear call. Such entries were picked first, then a sample of the others. Calls follow the shape of the dose curve; as a rule, active = well fitted cell-killing curve with a large enough effect; inconclusive = small, poorly fitted or top-dose-only effect, or effect the other way; inactive = flat fitted curve, though single readings scatter. Potencies beside an inconclusive call are fits to weak or partial responses and may not hold up.
experiment: qHTS assay for MDR1-selective chemotherapeutics: Primary screen using the drug-selected MDR subline cells KB-V1; conditions: KB-V1 MDR cells viability, CellTiter-Glo, 72 h; activity change, negative = cytotoxicity: at 46.1 µM (top of the series); also: nearly all actives have a fitted effect of over 60% in size
Method in brief: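 Following 72 h at 37 degrees C with compound, KB-V1 cell viability was read by CellTiter-Glo luminescence, medium being phenol-red-free DMEM plus 10% FBS; concentration-response parameters came from normalized, curve-fitted qHTS data.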
% is scaled to controls: 0 for no effect and ±100 for the full control effect; potency is read from the fitted curve at half-maximal effect.

Structure (SMILES) | Potency | activity change, negative = cytotoxicity
Oc1ccccc1CN(Cc1ccco1)CC(O)COCc1ccc(Cl)cc1 (configuration not stated) | inconclusive: 16.4 µM [cytotoxic, single point] | 
C[N+]1(CCN2C(=O)C3CC=C(Cl)CC3C2=O)CCOCC1 (configuration not stated) | inconclusive: 29.1 µM [rising, single point] | 
CC(=O)c1c(C)[nH]c(C(=O)OCC(=O)Nc2cccnc2Cl)c1C | inconclusive: 23.1 µM [cytotoxic, single point] | 
CCOC(=O)[C@]12CCC=C1N(Cc1ccc3c(c1)OCO3)C(=O)[C@H](CC(=O)NCCC(C)C)C2 | inconclusive: 3.26 µM [cytotoxic, full curve] | 
Cn1c(=O)c(/C=C/c2ccc(F)cc2)nc2ccccc21 | inconclusive: 5.17 µM [cytotoxic, full curve] | 
O=C(OC(C(=O)Nc1cccc(C(F)(F)F)c1)c1ccccc1)C1CCCCC1 (configuration not stated) | inconclusive: 20.6 µM [cytotoxic, single point] | 
CC(C)(C)OC(=O)N1CCOCCOCCN(C(=O)OC(C)(C)C)CCOCC1 | inconclusive: 10.3 µM [cytotoxic, partial curve] | 
COc1ccccc1N1CCN(C(=O)c2ccc3ncsc3c2)CC1 | active: 11.6 µM | 
Fc1ccc(-c2nnc(SCc3ncc(-c4ccccc4)o3)n2CC2CCCO2)cc1 (configuration not stated) | inconclusive: 14.6 µM [cytotoxic, single point] | 
O=C(OCC(=O)N1CCc2ccccc21)c1c2c(nc3ccccc13)CCCCC2 | active: 4.61 µM | 
Cc1cccc(/C=N/NC(=O)CNc2cccc3ccccc23)n1 | active: 14.6 µM | 
CNC(=O)C1CCC(Cn2c(=O)c3sccc3n(CC(=O)N3CCC(C)CC3)c2=O)CC1 (configuration not stated) | inconclusive: 14.6 µM [rising, partial curve] | 
Cc1ccc(-n2ncc(C(=O)NCc3ccco3)c2C2CCN(C(=O)OC(C)(C)C)CC2)cc1 |  | inactive: 10.5%
O=C(Nc1nnc(C2CC2)s1)C1=NN(C2CCS(=O)(=O)C2)C(=O)CC1 (configuration not stated) | inconclusive: 9.2 µM [rising, partial curve] | 
Cc1ccc(-n2c(N)c(C(N)=O)sc2=S)cc1 | inconclusive: 16.4 µM [rising, single point] | 
CCOC(=O)C1CCCN(c2c(NCCc3ccc(S(N)(=O)=O)cc3)c(=O)c2=O)C1 (configuration not stated) | inconclusive: 23.1 µM [rising, single point] | 
Cc1ccccc1/C=C/C(=O)c1ccc([N+](=O)[O-])o1 | inconclusive: 32.6 µM [rising, single point] | 
Cc1cc(NC(=O)CSCC(=O)Nc2ccccc2N2CCCCC2)no1 |  | inactive: -18%
CCOC(=O)N1CCN(C2CCCN(C(=O)c3cccc(Cl)c3)C2)CC1 (configuration not stated) |  | inactive: -18.5%
COC(=O)c1cc(S(=O)(=O)NCC2CCN(Cc3cccc(F)c3)CC2)cn1C | inactive | 
CCn1c(SCc2nc3ccccc3[nH]2)nnc1-c1cccs1 | active: 8.2 µM | 
CCCCN(C(=O)c1cccc(-n2cccc2)c1)c1c(N)n(CCCC)c(=O)[nH]c1=O | inconclusive: 23.1 µM [rising, single point] | 
COc1ccc(-c2ncn(CCC#N)c2[N+](=O)[O-])cc1 | inconclusive: 29.1 µM [cytotoxic, single point] | 
COc1cccc(N(CC(=O)N2CCN(c3ccccc3OC)CC2)S(C)(=O)=O)c1 | inconclusive: 18.4 µM [cytotoxic, single point] | 

Structure (SMILES) | Potency | activity change, negative = cytotoxicity
CCN(CC)C(=O)C1=C(C)N(CCCN2CCCC2=O)C(=O)C(CC(=O)NCCCCc2ccccc2)C1 (configuration not stated) |  | inactive: -10.6%
COc1ccc(CCNC(=O)c2cc(=O)c3cc(C)c(C)cc3o2)cc1OC | inconclusive: 8.2 µM [cytotoxic, partial curve] | 
NNC(=O)c1ccc(CN2CCCCC2)o1 |  | inactive: 20.7%
Cc1ccc2ccc(S(=O)(=O)n3nc(C)cc3C)cc2c1 | inconclusive: 7.31 µM [cytotoxic, partial curve, poor fit] | 
CC1CCCCC12NC(=O)N(CC(=O)N1CCN(Cc3ccc(C#N)cc3)CC1)C2=O (configuration not stated) | inconclusive: 2.31 µM [cytotoxic, partial curve, poor fit] | 
COc1cc(CN(C)C)cc(C=O)c1O |  | inactive: -6.61%
Cn1c(=O)c2c(nc(SCC(=O)Nc3ccc(F)c(F)c3)n2Cc2ccccc2F)n(C)c1=O |  | inactive: -5.63%
c1ccc(CN2CCC(Nc3nc(-c4cccnc4)nc4ccccc34)CC2)cc1 | inconclusive: 25.9 µM [cytotoxic, partial curve, poor fit] | 
CN(C)CCOC(=O)CCc1ccccc1 |  | inactive: 21.1%
CCN(c1ccccc1)S(=O)(=O)c1cccc(C(=O)N2CCN(S(=O)(=O)c3ccccc3)CC2)c1 | inconclusive: 8.2 µM [cytotoxic, partial curve] | 
O=C(Cn1cnc([N+](=O)[O-])c1)Nc1ccccc1C(F)(F)F |  | inconclusive: 30.8%
Cc1cc(C)cc(N(C(C)C(=O)NC2CCCC2)S(C)(=O)=O)c1 (configuration not stated) | inconclusive: 13 µM [cytotoxic, partial curve] | 
O=C(Nc1ccc(Cl)cc1)N(Cc1cccs1)Cc1cccs1 | inconclusive: 16.4 µM [cytotoxic, single point] | 
CN(C)S(=O)(=O)c1ccc(N2CCCC2)c(C(=O)Nc2ccccc2)c1 | inconclusive: 14.6 µM [cytotoxic, partial curve] | 
CNC(=O)COc1ccc(C=O)cc1OC | inconclusive: 29.1 µM [cytotoxic, single point] | 
Cc1cc(NCCCn2ccnc2)n2nc(-c3ccc(F)cc3)cc2n1 | inconclusive: 16.4 µM [cytotoxic, partial curve] | 
Cc1oc2ccc(O)c(CN3CCCCC3C)c2c1C(=O)Nc1ccccc1 (configuration not stated) | inconclusive: 23.1 µM [cytotoxic, single point] | 
CN(C)C=Nc1ccc2nc3c(cc2c1)[nH]c1ccccc13 |  | inactive: -13.9%
CC(C)c1ccc(-c2cc(C(=O)N3CCOCC3)c3cc(Br)ccc3n2)cc1 | inconclusive: 7.31 µM [cytotoxic, partial curve] | 
CC1CC(C)CN(C(=O)COC(=O)COc2ccccc2C#N)C1 (configuration not stated) | inconclusive: 29.1 µM [rising, single point] | 
O=C(CC(c1cccs1)N1Cc2ccccc2C1=O)Nc1ccc(F)cc1F (configuration not stated) | inconclusive: 32.6 µM [cytotoxic, single point] | 
COc1cc(CC(=O)OCC(=O)N2C(C)CCCC2C)cc(OC)c1OC (configuration not stated) |  | inactive: 4.13%
N=C1C(c2ccccc2)=C(O)CN1c1cccc(S(=O)(=O)N2CCOCC2)c1 |  | inactive: 17.9%
O=C(NCc1ccncc1)c1cc(S(=O)(=O)N2CCOCC2)c(Cl)cc1Cl | inconclusive: 25.9 µM [rising, single point] | 

Structure (SMILES) | Potency | activity change, negative = cytotoxicity
Cc1ccccc1OCC(O)CN1CCN(c2ccccn2)CC1 (configuration not stated) | inconclusive: 16.4 µM [cytotoxic, partial curve, poor fit] | 
S=C(NCc1ccccc1)NN1CCOCC1 |  | inactive: -1.06%
COc1ccc2c(=O)c(-c3ccccc3)coc2c1 |  | inactive: -2.59%
CC(=O)c1ccc(NC(=O)CCCN2C(=O)/C(=C/C(C)=C/c3ccccc3)SC2=S)cc1 | active: 18.4 µM | 
CC(C)c1ccc(C2c3c(oc4ccc(Cl)cc4c3=O)C(=O)N2CCCN2CCOCC2)cc1 (configuration not stated) | inconclusive: 29.1 µM [cytotoxic, single point] | 
O=[N+]([O-])c1ccc(C2CC(c3ccccc3)=Nc3ccccc3S2)cc1 (configuration not stated) |  | inactive: 3.06%
CCCCCc1ccc(OCCCC[n+]2cccc(C)c2)c(CCCCC)c1 |  | inactive: 28.9%
N#Cc1cnn(-c2ccccc2)c1NC(=O)c1ccccc1F |  | inactive: 0.412%
O=c1c2c3c(sc2n(Cc2ccccc2F)c(=O)n1-c1ccc(Cl)cc1)CCCC3 |  | inactive: 22.8%
Cc1ccc(Cn2cnc3c(cnn3C(C)(C)C)c2=O)cc1 |  | inactive: -13.7%
CC(NC(=O)CSc1nc2ccccc2n1C)c1ccccc1 (configuration not stated) |  | inactive: 0.278%
CC(=O)c1ccc(Oc2ccc(C(=O)c3ccc(C)c(C)c3)cc2[N+](=O)[O-])cc1 | inconclusive: 9.2 µM [cytotoxic, partial curve, poor fit] | 
COc1ccccc1NC(=O)CSCc1nc2ccccc2[nH]1 | active: 20.6 µM | 
Cc1c(NC(=O)COC(=O)C2(c3ccc(F)cc3)CCCC2)c(=O)n(-c2ccccc2)n1C | inconclusive: 20.6 µM [cytotoxic, single point] | 
C=C1C(=O)OC2C1CCC(C)=CCCC1(C)OC21 (configuration not stated) |  | inactive: -25.5%
Cc1ccc(CSc2nnc(CCCCCNC(=O)OC(C)(C)C)o2)cc1 | inconclusive: 7.31 µM [cytotoxic, partial curve] | 
Cc1cccc(N2CCN(C(=O)CNC(=O)c3cccc([N+](=O)[O-])c3)CC2)c1C | inconclusive: 6.51 µM [cytotoxic, full curve] | 
O=C(CCN1C(=O)/C(=C/c2cccs2)SC1=S)Nc1ccccc1O | inconclusive: 25.9 µM [cytotoxic, single point] | 
CCCCOc1ccc(CN(C)c2ncnc(N)n2)cc1 | inconclusive: 14.6 µM [cytotoxic, partial curve, poor fit] | 
C(#Cc1ccccc1)C[N+]1(CC#Cc2cccc3ccccc23)CCOCC1 |  | inactive: 22.8%
CSc1ccccc1NC(=O)CN(C)C(=O)c1c(C)nn(Cc2ccccc2)c1C | active: 20.6 µM | 
Cc1cc(-c2ccc(S(=O)(=O)Nc3cc(Cl)ccc3C)s2)on1 | inconclusive: 25.9 µM [cytotoxic, single point] | 
COc1ccc(CCNC(=O)c2cc3c(-c4ccc(OC)c(OC)c4)nn(C)c3s2)cc1OC | inconclusive: 6.51 µM [cytotoxic, partial curve] | 
O=C(Nc1ccc(Cl)cc1)N1CCN(Cc2ccc3c(c2)OCO3)CC1 |  | inconclusive: -33.4%

As a working copy, 19 of the compounds above.
Structure (SMILES) | Potency | activity change, negative = cytotoxicity
CCN(CC)C(=O)C1=C(C)N(CCCN2CCCC2=O)C(=O)C(CC(=O)NCCCCc2ccccc2)C1 (configuration not stated) |  | inactive: -10.6%
COc1ccc(CCNC(=O)c2cc(=O)c3cc(C)c(C)cc3o2)cc1OC | inconclusive: 8.2 µM [cytotoxic, partial curve] | 
NNC(=O)c1ccc(CN2CCCCC2)o1 |  | inactive: 20.7%
Cc1ccc2ccc(S(=O)(=O)n3nc(C)cc3C)cc2c1 | inconclusive: 7.31 µM [cytotoxic, partial curve, poor fit] | 
CC1CCCCC12NC(=O)N(CC(=O)N1CCN(Cc3ccc(C#N)cc3)CC1)C2=O (configuration not stated) | inconclusive: 2.31 µM [cytotoxic, partial curve, poor fit] | 
COc1cc(CN(C)C)cc(C=O)c1O |  | inactive: -6.61%
Cn1c(=O)c2c(nc(SCC(=O)Nc3ccc(F)c(F)c3)n2Cc2ccccc2F)n(C)c1=O |  | inactive: -5.63%
c1ccc(CN2CCC(Nc3nc(-c4cccnc4)nc4ccccc34)CC2)cc1 | inconclusive: 25.9 µM [cytotoxic, partial curve, poor fit] | 
CN(C)CCOC(=O)CCc1ccccc1 |  | inactive: 21.1%
CCN(c1ccccc1)S(=O)(=O)c1cccc(C(=O)N2CCN(S(=O)(=O)c3ccccc3)CC2)c1 | inconclusive: 8.2 µM [cytotoxic, partial curve] | 
O=C(Cn1cnc([N+](=O)[O-])c1)Nc1ccccc1C(F)(F)F |  | inconclusive: 30.8%
Cc1cc(C)cc(N(C(C)C(=O)NC2CCCC2)S(C)(=O)=O)c1 (configuration not stated) | inconclusive: 13 µM [cytotoxic, partial curve] | 
O=C(Nc1ccc(Cl)cc1)N(Cc1cccs1)Cc1cccs1 | inconclusive: 16.4 µM [cytotoxic, single point] | 
CN(C)S(=O)(=O)c1ccc(N2CCCC2)c(C(=O)Nc2ccccc2)c1 | inconclusive: 14.6 µM [cytotoxic, partial curve] | 
CNC(=O)COc1ccc(C=O)cc1OC | inconclusive: 29.1 µM [cytotoxic, single point] | 
Cc1cc(NCCCn2ccnc2)n2nc(-c3ccc(F)cc3)cc2n1 | inconclusive: 16.4 µM [cytotoxic, partial curve] | 
Cc1oc2ccc(O)c(CN3CCCCC3C)c2c1C(=O)Nc1ccccc1 (configuration not stated) | inconclusive: 23.1 µM [cytotoxic, single point] | 
CN(C)C=Nc1ccc2nc3c(cc2c1)[nH]c1ccccc13 |  | inactive: -13.9%
CC(C)c1ccc(-c2cc(C(=O)N3CCOCC3)c3cc(Br)ccc3n2)cc1 | inconclusive: 7.31 µM [cytotoxic, partial curve] | 

Reference: PubChem BioAssay AID1347076 (National Center for Advancing Translational Sciences (NCATS), 2019)
